Test results as given in PubChem BioAssay AID540256 (National Center for Advancing Translational Sciences (NCATS), 2011).
About 3,700 (1.2%) of roughly 300,000 compounds were called active. The inconclusive results got no clear call from the source; some entries with a clear call stand among them for comparison. Calls come from the whole dose curve; tested in HEK293 cells. A potency beside an inconclusive call is a rough fit, not a confirmed value.

Assay: qHTS for Inhibitors of binding or entry into cells for Lassa Virus; note: nearly all actives have a fitted effect of over 50% in size
Settings: Lassa virus pseudotype entry inhibition, cell reporter; series mostly up to 37.9 µM
Potency is the fitted concentration of half-maximal effect.

SMILES	Potency
Brc1ccc(-c2nnc(-c3cccnc3)o2)cc1	inconclusive: 35.5 µM [inhibitor, single point]
Cc1cc(O)c(C(C)C)cc1NC(=O)c1cccc(Cl)c1	inconclusive: 16.4 µM [inhibitor, partial curve]
CCOC(=O)c1c(C)[nH]c(C)c1C(=O)COc1ncnc2cc([N+](=O)[O-])ccc12	inconclusive: 11.2 µM [inhibitor, partial curve]
COc1cc(/C=C2\SC(=O)N(Cc3ccc(Cl)cc3)C2=O)cc([N+](=O)[O-])c1O	inconclusive: 10 µM [inhibitor, partial curve, poor fit]
CCCCNc1c([N+](=O)[O-])cc(C)cc1[N+](=O)[O-]	inactive
O=C(CCN1C(=O)/C(=C/c2ccccc2Cl)SC1=S)N1CCOCC1	inconclusive: 20 µM [inhibitor, single point]
CN1CCN(CC(=O)c2ccccc2F)CC1	inconclusive: 1.26 µM [inhibitor, single point]
CCc1ccc(N/C(N)=N/c2nc(CSc3ccccn3)cc(=O)[nH]2)cc1	inconclusive: 11.2 µM [inhibitor, partial curve, poor fit]
Cc1ccc(N(C)S(=O)(=O)c2ccc3[nH]c4c(c3c2)CCCC4)cc1	inconclusive: 14.1 µM [inhibitor, single point]
O=C(c1cc(Sc2ccc(Cl)cc2)nc2ccccc12)N1CCN(c2ccccn2)CC1	inconclusive: 14.1 µM [inhibitor, partial curve, poor fit]
O=C(Nc1nc2ccccc2n1CCN1CCOCC1)c1ccc(Cn2cc([N+](=O)[O-])cn2)o1	inconclusive: 1.26 µM [inhibitor, single point]
Cn1ccnc1Sc1cc(NCCCO)c([N+](=O)[O-])c2nonc12	inconclusive: 15.8 µM [inhibitor, single point]
Cc1ccc(C)c(Oc2cc(NC(=O)CCCn3nc(C)c([N+](=O)[O-])c3C)cc([N+](=O)[O-])c2)c1	inconclusive: 22.4 µM [inhibitor, single point]
CCN(CC)S(=O)(=O)c1cc(NC(=O)COc2ccc(C#N)cc2OC)ccc1C	inconclusive: 22.4 µM [inhibitor, single point]
O=C(NC1CCCCC1)N1CCSC1=Nc1ccccc1	inconclusive: 5.8 µM [inhibitor, partial curve, poor fit]
Cc1ccc(C)c(S(=O)(=O)Nc2nc(C)c(C(=O)Nc3ccccc3)s2)c1	inactive
CC(C(=O)Nc1ccccc1-c1ccccc1)N1CCN(S(=O)(=O)c2ccccc2)CC1 (stereo not given)	inconclusive: 22.4 µM [inhibitor, single point]
O=C(NC1CCCCCCC1)c1ccccc1-c1ccccc1	inactive
CCOC(=O)N1CCC(NC(=O)CS(=O)(=O)Cc2nc(-c3ccccc3C)oc2C)CC1	inactive
O=C(CSc1ccccc1)NCc1ccc2c(c1)CCN2C(=O)c1ccc(Cl)cc1	inconclusive: 20 µM [inhibitor, single point]
CC(C)(C)NC(=O)CCCCCCCC(=O)NC(C)(C)C	inconclusive: 1.26 µM [activator, full curve, poor fit]
COc1cc(/C=C/C(=O)NC(C)C)ccc1OCc1ccccc1	inconclusive: 1.12 µM [inhibitor, partial curve, poor fit]

Looked up by compound from above, 5 records:
SMILES	Potency
CN1CCN(CC(=O)c2ccccc2F)CC1	inconclusive: 1.26 µM [inhibitor, single point]
CCN(CC)S(=O)(=O)c1cc(NC(=O)COc2ccc(C#N)cc2OC)ccc1C	inconclusive: 22.4 µM [inhibitor, single point]
CC(C(=O)Nc1ccccc1-c1ccccc1)N1CCN(S(=O)(=O)c2ccccc2)CC1 (stereo not given)	inconclusive: 22.4 µM [inhibitor, single point]
Cc1cc(O)c(C(C)C)cc1NC(=O)c1cccc(Cl)c1	inconclusive: 16.4 µM [inhibitor, partial curve]
O=C(Nc1nc2ccccc2n1CCN1CCOCC1)c1ccc(Cn2cc([N+](=O)[O-])cn2)o1	inconclusive: 1.26 µM [inhibitor, single point]

(list continues)

SMILES	Potency
CCOC(=O)C1=C(Nc2ccc(Br)cc2)CC(C)(O)C(C(=O)OCC)C1c1ccccc1 (stereo not given)	inconclusive: 6.31 µM [inhibitor, single point]
CCNc1nc(NCC)nc(SCCOc2ccc(C)cc2)n1	inconclusive: 35.5 µM [inhibitor, single point]
Cc1occc1C(=O)Nc1cc(C(C)(C)C)on1	inconclusive: 3.26 µM [inhibitor, partial curve, poor fit]
CCCCCCCCCCCCCC(=O)O[C@@H]1[C@@H](C)[C@@]2(O)[C@@H](C=C(CO)C[C@@]3(O)C(=O)C(C)=C[C@@H]23)C2C(C)(C)[C@@]21OC(C)=O (stereo not given in full)	active: 6.51 µM
CCc1cc(C(=O)NNC(=S)Nc2ccccc2C)cs1	inconclusive: 1.16 µM [activator, single point]
c1ccc2c(c1)-c1ccccc1C2N1CCOCC1	inactive
COc1ccc(CCN2C(=O)c3[nH]nc(-c4ccccc4O)c3C2c2cccc(OC)c2)cc1 (stereo not given)	inconclusive: 7.08 µM [inhibitor, full curve, poor fit]
CC(=O)Nc1cc2c(cc1NC(=O)Cn1nc(-c3ccccc3F)ccc1=O)OCCO2	inactive
CCN1CCN(c2ccc(S(=O)(=O)N3CCCCC3)cc2NC(=O)c2cccc(C)c2[N+](=O)[O-])CC1	inconclusive: 35.5 µM [inhibitor, single point]
C=CCn1c(SCC(=O)NCc2ccc3c(c2)OCO3)nc2scc(-c3ccccc3)c2c1=O	inconclusive: 23.1 µM [inhibitor, single point]
Cc1cc(C)c(S(=O)(=O)N2CCCCC2)c(C)c1N(C)S(=O)(=O)c1ccc(Cl)cc1	inconclusive: 31.6 µM [inhibitor, single point]
COc1ccccc1N(CC(=O)NCc1ccc(F)cc1)C(=O)CCC(=O)Nc1nccs1	inconclusive: 20 µM [inhibitor, single point]
Cc1cc(C(F)(F)F)nn1-c1nc(-c2ccccc2)cc(C(F)(F)F)n1	inactive
O=C(c1ccccc1Cl)N(Cc1ccco1)Cc1ccco1	inactive
CN(Cc1ccccc1)c1ccc(-c2nc(-c3ccco3)no2)cc1[N+](=O)[O-]	inactive
Cc1ccccc1-c1nc2cc(NC(=O)C3CC3)ccc2o1	inconclusive: 7.94 µM [inhibitor, partial curve, poor fit]
CC(=O)c1cccc(NC(=O)c2c(-c3ccccc3)c(-c3ccccc3)nn(C)c2=O)c1	inconclusive: 11.2 µM [inhibitor, partial curve, poor fit]
Cc1ccc(-c2csc(NC(=O)c3ccc(Br)cc3)c2C(=O)O)cc1	inconclusive: 12.6 µM [inhibitor, partial curve, poor fit]
COc1ccc(C2C(C(N)=O)=C(C)Nc3nc(CCCO)nn32)cc1 (stereo not given)	inconclusive: 35.5 µM [activator, single point]
Cc1ccc(CCNC(=O)c2cc(Nc3ccc(C)c(C)c3)nc3ccccc23)cc1	inactive
O=S(=O)(NCCc1ccccc1)c1ccc(Cl)nc1	inconclusive: 10 µM [activator, partial curve, poor fit]
O=C(COC(=O)C1(c2ccc(Cl)cc2)CCCC1)NCc1ccco1	inactive

SMILES	Potency
CCOC(=O)COn1c(=O)c(-c2ccc(OC)cc2)[n+]([O-])c2ccccc21	inconclusive: 35.5 µM [activator, partial curve, poor fit]
Cc1ccc(NC(=O)CSc2c3c(nc4ccccc24)CCCC3)cc1F	inactive
CC(C)Cn1c2c(c(O)c(C(=O)Nc3nccs3)c1=O)CCCC2	inactive
COc1ccc(-n2nc(C(=O)Nc3ccc(Cl)cn3)c3c4ccccc4n(C)c3c2=O)cc1Cl	inconclusive: 3.98 µM [activator, full curve, poor fit]
O=C(Nc1cc(C(=O)N2CCCC2)ccc1N1CCCC1)c1ccccc1F	inactive
NS(=O)(=O)c1ccc(CNC(=S)NCc2ccc(F)cc2)cc1	inactive
Clc1ccc(OCc2nc3ccccc3[nH]2)cc1	inconclusive: 17.8 µM [inhibitor, single point]
O=C(Nc1cccc(C(F)(F)F)c1)OCCN1CCN(Cc2ccccc2)CCC1=O	inconclusive: 29.1 µM [inhibitor, single point]
CC(=O)c1ccc(NC(=O)C(C)OC(=O)/C=C/c2ccco2)cc1 (stereo not given)	inconclusive: 35.5 µM [inhibitor, single point]
CCn1cc(CN2CCN(Cc3ccccc3)C(CCO)C2)c2ccccc21 (stereo not given)	inconclusive: 3.55 µM [inhibitor, partial curve, poor fit]
COc1cc(NC(=O)Cc2nn(C)c(=O)c3ccccc23)cc(OC)c1OC	inactive
COc1ccc(C(=O)NCC2OCCc3ccccc32)cc1 (stereo not given)	inconclusive: 7.08 µM [activator, full curve, poor fit]
ON1C2CCCCC2N(O)C1c1c(F)c(F)c(F)c(F)c1F (stereo not given)	inconclusive: 18.3 µM [inhibitor, single point]
CCN(CC)S(=O)(=O)c1ccc(N(C)Cc2ccc(C(F)(F)F)cc2)nc1	active: 4.47 µM
CCC(=O)Nc1ccc2c(c1)ncn2-c1ccccc1C	inactive
CCC(C)(C)n1nnnc1C(c1cccc(C#N)c1)N1CCN(c2cc(C)ccc2C)CC1 (stereo not given)	inconclusive: 11.6 µM [inhibitor, partial curve]
CCOC(=O)c1ccccc1NS(=O)(=O)c1ccc(N2CCCCS2(=O)=O)cc1	inactive
O=C(NC(=O)N1CCN(c2cccc(Cl)c2)CC1)c1ccccc1	inconclusive: 4.61 µM [inhibitor, full curve]
Cc1nn(Cc2ccccc2)c(C)c1NC(=O)CSc1nc2c(c(C(F)(F)F)n1)CCc1ccccc1-2	inconclusive: 4.11 µM [inhibitor, single point]
CC(C)S(=O)(=O)c1oc(-c2ccc(F)cc2)nc1S(=O)(=O)c1ccccc1	inconclusive: 4.47 µM [inhibitor, full curve]
CN1CCN(c2oc(/C=C/c3ccc(F)cc3)nc2C#N)CC1	inconclusive: 6.31 µM [inhibitor, single point]
